# Data reported in patent publication EP0109697B1, “Rodent bait” (priority 1982, dated 1984).
# Tests used:
# male 12-18 gram LAC mice = assay: Feeding test of mouse bait particles on mice (Example 8); format: in vivo; settings: 0.1 mg aldicarb particles, one per two grams of oatmeal (50 ppm), ten male LAC mice
# Procedure: Particles of a size suitable for consumption whole (without nibbling) by mice, i.e. about 0.5 mm diameter spheres, containing 0.1 mg of aldicarb per particle were produced by a precipitation process.
# (§1) The mouse bait particles were distributed in medium oatmeal at the concentration of one per two grams of oatmeal (50 ppm), and the rat bait particles were distributed in medium oatmeal at the concentration of one per twenty grams of oatmeal (50 ppm).
# (§2) Ten male 12-18 gram LAC mice and five female 300-350 gram Wistar rats were permitted to feed on the mouse bait; and five female 300-350 gram Wistar rats were allowed to feed on the rat bait. The baits were topped up when necessary to keep a supply of food material available, and water was supplied freely.
# [1] = system: female 300-350 gram Wistar rats; assay: Feeding test of rat bait particles on rats (Example 8); format: in vivo; settings: 1.0 mg aldicarb particles, one per twenty grams of oatmeal (50 ppm), five female Wistar rats
# Procedure: Suitably larger particles appropriate for rats, i.e. about 1 mm x 1 mm cylinders, containing 1.0 mg of aldicarb per particle were produced by extrusion.
# as §1, §2
compound,measurement,setting,value
"CNC(=O)O/N=C/C(C)(C)SC [aldicarb, 2 methyl-2-(methylthio) propionaldehyde 0-(methylcarbamoyl) oxime]",Mouse bait particles Mouse Consumption,male 12-18 gram LAC mice; Day 1,25 g
same,Mouse bait particles Mouse Consumption,male 12-18 gram LAC mice; Day 2,10 g
same,Mouse bait particles Mouse Consumption,male 12-18 gram LAC mice; Day 3,0 g
same,Rat bait particles Rat Consumption,[1]; Day 1,70 g
same,Rat bait particles Rat Consumption,[1]; Day 2,20 g
same,Rat bait particles Rat Consumption,[1]; Day 3,0 g
